# Among all 220,000 compounds or so, about 2,400 (1.1%) were called active. This list was built around the results that the source calls inconclusive (neither active nor inactive); the mix of calls is not that of the screen. Calls come from the whole dose curve; as a rule, active = well fitted inhibition curve with a large enough effect; inconclusive = small, poorly fitted or top-dose-only effect, or effect the other way; inactive = no such curve, though single readings can be large or run the other way. Potencies of inconclusive entries are doubtful fits and often do not repeat.
# Assay: qHTS Multiplex Assay to Identify Dual Action Probes in a Cell Model of Huntington: Aggregate Formation (GFP); note: nearly all actives have a fitted effect of over 60% in size
# Details: PC12 HttQ103-GFP aggregates, Acumen cytometry, 40 h; activity change, negative = inhibition: at 46.1 µM (top of the series) unless noted
# Description: NIH Chemical Genomics Center [NCGC]
# NIH Molecular Libraries Probe Production centers Network [MLPCN]
# Assay Submitter (PI): Wei Zheng
# Huntington's disease is a neurodegenerative disorder caused by a trinucleotide repeat expansion in Exon 1 of the Huntingtin gene. The CAG trinucleotide encodes glutamine and polyglutamine expansions cause cell death in selective areas of the brain. Huntington polyglutamine repeats have the tendency to form aggregates which are observable in later stages of the disease. The exact nature of the aggregates, whether toxic, protective, or insignificant, is unclear.
# A stable PC12 cell line containing a gene fusion of Exon 1 of the Huntingtin gene linked to GFP under the control of the inducible ecdysone promoter were used as the cell-based model of Huntington Disease for high throughput screening. Exon 1 of the Huntingtin gene contained an expansion of 103 polyglutamines (Q103) which, when expressed, caused cell death and distinct, bright GFP aggregates. The amount of cell death and the size and intensity of GFP aggregates increased over time and induction level. The cell death were quantified with a measurement of ATP content in the cells. A maximal 40-50% of cell death was observed when the Huntington gene was induced in this cell line.
# We optimized this assay in a homogeneous 1536 well format. A quantitative high throughput screen (qHTS) was conducted on the PC12 cells which were induced to express the toxic fusion construct. Small molecules which reduced aggregate formation were identified bu using a laser scanning cytometer calibrated to detect the aggregates in cell lysates.
# PC12 cells stably containing a construct with an ecdysone inducible promoter expressing GFP fused to the exon 1 of HTTQ103 (Huntington protein which containing a 103 ployglutamine expansion) were used.
# NCGC Assay Protocol Summary:
# Sequence, Parameter, Description
# 1, Reagent, 5 uL 1500 cells/well 1536 TC treated White clear bottom plate
# 2, Compound, 23 nL Tebufenozide inducer (100 nM final) to all columns
# 3, Compound, 23 nL 40 uM to 0.5 nM Libraries
# 5, Reagent, 5 ul ATPLite cell death assay reagent
# 6, Detector, Aggregate quantitation by Acumen Explorer
# Media consisted of phenol red free DMEM + 5% equine serum (Hyclone # SH30072.03 ), 5% supplemented Bovine Calf Serum (Hyclone # SH30074.03 ), 1x pen/strep, no G418
# Acumen Explorer was used to quantitate GFP aggregates using the following criteria: […] laser excitation, 500-530 nm emission, the PMT was set at a voltage of 450 volts, and objects ranging in size of […] in size having a signal of 6 STDEV above background were collected.
# Control columns: 1 = DMSO, 2= 2 uM teb dilns (1:1), 4 = 100 nM Teb inducer. Sample columns received 100 nM Teb.
# % is set by controls: 0 for no effect and ±100 for the full control effect; potency is the fitted concentration of half-maximal effect.
Structure (SMILES),Potency,"activity change, negative = inhibition"
c1coc(CNc2nc(-c3ccncc3)cs2)c1,active: 14.1 µM,–
O=C(Nc1nc2n(n1)C(c1ccccc1)CC(c1ccc(Cl)cc1)N2)c1ccco1 (configuration not stated),"inconclusive: 2.51 µM [activator, partial curve, poor fit]",–
CCN1C(=O)/C(=C2\SC(N3CCCCC3)=NC2=O)c2ccccc21,"inconclusive: 7.08 µM [activator, partial curve]",–
Cc1cc(C)cc(-n2c(SCC(=O)NCc3ccco3)nc3ccccc3c2=O)c1,"inconclusive: 0.562 µM [inhibitor, full curve, poor fit]",–
COc1ccc(-c2cn3c(C)c(C(=O)Nc4cccc(C)n4)sc3n2)cc1,"inconclusive: 35.5 µM [inhibitor, single point]",–
O=C(Nc1ccc(Cl)cc1)N1CCC(c2nc(-c3ccc(F)cc3)no2)CC1,"inconclusive: 11.2 µM [inhibitor, partial curve]",–
O=C(Nc1ccc(N2CCN(C(=O)c3ccccc3)CC2)cc1)c1ccc([N+](=O)[O-])o1,–,inactive: -32.2% [at 9.22 µM]
Cc1ccnc(NC(=O)C2CCN(S(=O)(=O)c3cccc4nsnc34)CC2)c1,inactive,–
COc1ccc(Cc2nn3c(-c4ccccc4Br)nnc3s2)cc1,"inconclusive: 0.562 µM [inhibitor, full curve, poor fit]",–
Cc1cc(C)c2nc(NNC(=O)c3cc(=O)c4ccccc4o3)sc2c1,–,inactive: -4.7% [at 9.22 µM]
O=C(Cn1cc2c(n1)CCCC2)NCc1ccccn1,inactive,–
O=C(Nc1ccc(Cl)cn1)C1COc2ccccc2O1 (configuration not stated),–,inactive: -12.4% [at 9.22 µM]
OCc1nnc2c3ccccc3c(-c3ccccc3)nn12,"inconclusive: 20 µM [activator, single point]",–
CCOc1cc(/C=N/NC(=O)CCc2n[nH]c(=O)[nH]c2=O)ccc1O,inactive,–
N#Cc1c(-c2ccc3c(c2)OCO3)csc1N,"inconclusive: 8.91 µM [inhibitor, partial curve, poor fit]",–
Cc1ccc(S(=O)(=O)NCc2ccc(/C=C(/C#N)C(=O)NCc3ccccc3)o2)cc1,"inconclusive: 35.5 µM [inhibitor, single point]",–
Oc1ccccc1CNc1ccc(OC(F)(F)F)cc1,"inconclusive: 17.8 µM [inhibitor, partial curve, poor fit]",–
COc1ccccc1N1CCN(S(=O)(=O)Cc2ccccc2Cl)CC1,"inconclusive: 22.4 µM [inhibitor, single point]",–
COc1ccc(/C=C2\C(=O)NC(=S)N2C(=O)c2ccc(F)cc2)cc1,"inconclusive: 10 µM [inhibitor, partial curve]",–
N#CC1=C(N)OC2=C(C(=O)CC(c3ccccc3)C2)C1c1ccoc1 (configuration not stated),"inconclusive: 35.5 µM [activator, partial curve]",–
CC(CC(=O)Nc1ccc(Cl)c([N+](=O)[O-])c1)c1ccccc1 (configuration not stated),"inconclusive: 20 µM [inhibitor, partial curve]",–
O=C(NC(=S)Nc1ccccc1N1CCCCC1)c1cccs1,"inconclusive: 0.562 µM [activator, full curve, poor fit]",–
Clc1cccc(OCCCN2CCCC2)c1Cl,inactive,–
CCCCOC(=O)c1ccc(NC(=O)c2ccoc2C)cc1,"inconclusive: 10 µM [inhibitor, partial curve, poor fit]",–

Structure (SMILES),Potency,"activity change, negative = inhibition"
O=C(CC1c2ccccc2Oc2ccccc21)N1CCN(c2ccccn2)CC1,"inconclusive: 35.5 µM [inhibitor, single point]",–
Cc1cccc(-n2c(C)cc(/C=N/O)c2C)c1,inactive,–
CCc1cc(OCCCSc2nc(C)cc(=O)[nH]2)ccc1Cl,active: 35.5 µM,–
CCc1nnc(NC(=O)c2cc(S(=O)(=O)N(CC)CC)ccc2Cl)s1,"inconclusive: 0.562 µM [inhibitor, full curve]",–
CCCCCC(=O)Nc1cccc(C2=NOC3(C2)C[C@@H](C(N)=O)N(C(=O)CC(c2ccccc2)c2ccccc2)C3)c1 (some centres not stated),"inconclusive: 5.62 µM [activator, partial curve]",–
CC(C)CNC(=O)c1coc(=O)c(Br)c1,"inconclusive: 10 µM [inhibitor, partial curve, poor fit]",–
Cc1nn(Cc2ccccc2)c(Cl)c1/C=N/NC(=O)c1cccnc1,inactive,–
O=C(OCc1cc2ccccc2[nH]c1=O)c1ccccc1,inactive,–
CC1Cc2ccccc2N1C(=S)NC(=O)c1cccc(Br)c1 (configuration not stated),"inconclusive: 14.1 µM [inhibitor, single point]",–
C#CC[N+](C)(C)CCCCCCCCCCCC,"inconclusive: 10 µM [inhibitor, partial curve]",–
CC(=O)c1sc2nc(-c3cccs3)ccc2c1N,–,inactive: -1.7% [at 9.22 µM]
Cc1cc(N)n(-c2ccc(S(=O)(=O)c3ccc(C(C)C)cc3)cc2)n1,inactive,–
O=C(O)c1ccc(N=Cc2nc(-c3ccco3)oc2O)cc1,inactive,–
COC(=O)c1c(C(=O)OC)c2n(c1C)CCC2,inactive,–
CN1CCN(c2ccc(Cl)cc2NC(=O)c2ccc(=O)n(C)n2)CC1,"inconclusive: 22.4 µM [activator, single point]",–
CCCNS(=O)(=O)c1ccc(OCC(=O)Nc2ccc3c(c2)OCO3)cc1,–,inactive: -22.9% [at 9.22 µM]
Cc1ccc(-n2c(SCC(=O)N/N=C/c3ccc(C)s3)nnc2-c2ccccc2)cc1,"inconclusive: 11.2 µM [activator, single point]",–
Cc1ccc(-c2c[n+](CC(=O)N3c4ccccc4Sc4ccccc43)c3n2CCC3)cc1,"inconclusive: 6.31 µM [inhibitor, single point]",–
O=C(c1ccc(Cn2c(=O)[nH]c3ccccc3c2=O)cc1)N1CCN(c2ccc(Cl)cc2)CC1,"inconclusive: 15.8 µM [inhibitor, single point]",–
COc1ccc(Oc2cc(C)nc(Cl)n2)nn1,"inconclusive: 35.5 µM [activator, single point]",–
O=C(NNC(=S)NCc1ccc(Cl)cc1)c1ccc2c(c1)OCO2,–,inactive: -24.5% [at 9.22 µM]
CCCn1c(NC(=O)C2COc3ccccc3O2)nc2ccccc21 (configuration not stated),"inconclusive: 3.55 µM [inhibitor, single point]",–
Cc1ccc(C)c(N2CCN(C(=O)C3CCCN(S(=O)(=O)c4c(C)noc4C)C3)CC2)c1 (configuration not stated),"inconclusive: 14.1 µM [inhibitor, single point]",–
S=C(Sc1ccc(Cl)cc1)Sc1ccc(Cl)cc1,"inconclusive: 5.62 µM [inhibitor, single point]",–

Structure (SMILES),Potency,"activity change, negative = inhibition"
Cn1cnc([N+](=O)[O-])c1Oc1cccc2ccccc12,"inconclusive: 35.5 µM [inhibitor, single point]",–
Cc1ccc(NC(=O)COC(=O)CCC(=O)c2ccc(Cl)cc2)cc1S(=O)(=O)N(C)C,"inconclusive: 1.58 µM [inhibitor, partial curve]",–
O=C(NCc1ccc2c(c1)OCO2)c1ccc(CSCc2cccc(Cl)c2)o1,inactive,–
CC(C)CC(NS(=O)(=O)c1ccccc1)C(=O)O (configuration not stated),"inconclusive: 0.562 µM [inhibitor, full curve]",–
Cc1ccccc1-c1cc2c(nn1)-c1ccccc1C2=O,active: 25.1 µM,–
COc1ccc(C2C(C(C)=O)=C(O)C(=O)N2c2cccnc2)c(OC)c1 (configuration not stated),inactive,–
COc1cc(/C=N/NC(=O)CC#N)cc(Br)c1O,"inconclusive: 35.5 µM [activator, single point]",–
CS(=O)(=O)N(CC(=O)NCc1ccncc1)Cc1ccc(Cl)cc1,active: 0.631 µM,–
CN(C(=O)c1coc(=O)c2ccccc12)c1ccccc1Cl,inactive,–
N#Cc1cnn2c(N)c(-c3ccc(Cl)cc3)cnc12,inactive,–
O=C(Nc1ccc(Br)cc1Cl)NC1CC1,active: 17.8 µM,–
Cc1ccc(Oc2nc(CN3CCOCC3)nc3sc4c(c23)CCC(C)C4)cc1 (configuration not stated),"inconclusive: 5.62 µM [inhibitor, single point]",–
OCCN1CCN(C(c2cccs2)c2ccc3cccnc3c2O)CC1 (configuration not stated),inactive,–
CCOc1ccc2[nH]c(=O)c(C(c3nnnn3Cc3ccco3)N3CCN(C)CC3)cc2c1 (configuration not stated),"inconclusive: 5.62 µM [inhibitor, single point]",–
CCCNC(=O)c1c[nH]c2ccc(S(=O)(=O)N(C)c3ccc(OCC)cc3)cc2c1=O,"inconclusive: 22.4 µM [inhibitor, single point]",–
CCOc1ccc(N2C(=O)CC(SCc3nc4ccccc4[nH]3)C2=O)cc1 (configuration not stated),–,inactive: -11.3% [at 9.22 µM]
C=CCOc1ccc(C2c3c(oc4ccccc4c3=O)C(=O)N2CCCN2CCOCC2)cc1 (configuration not stated),inactive,–
NC(=O)c1cccc2cc3ccccc3cc12,inactive,–
CCN(CC)CCOc1ccc2c(c1)C(=NO)c1cc(OCCN(CC)CC)ccc1-2,"inconclusive: 35.5 µM [inhibitor, single point]",–
O=C(CNC1CCN(Cc2ccccc2)CC1)Nc1ccc(S(=O)(=O)N2CCCCC2)cc1,"inconclusive: 6.31 µM [inhibitor, single point]",–
COc1ccc(-c2csc3ncn(-c4ccccc4OC)c(=O)c23)cc1OC,"inconclusive: 35.5 µM [inhibitor, single point]",–
O=C(Nc1ccc(CSc2ccccc2)cc1)c1ccc(CN2CCOCC2)cc1,"inconclusive: 0.0028 µM [inhibitor, full curve, poor fit]",–
Cc1occc1C(=O)NC(C)CCc1ccccc1 (configuration not stated),inactive,–
COC(=O)c1sc2cnccc2c1N,"inconclusive: 12.6 µM [inhibitor, single point]",–
